In publication PMC12270201:
No constants are given. Whether binding was seen depends on the method and setting. Binding seen in cells or lysates may run through a third protein. Here binding means that the protein was enriched with, or labelled near, the bait; the list need not be complete.

Chains of the proteins cited; added tags and fusions are not shown. Lines headed by an entry give the natural chain unless they say otherwise; changes in a name come on top. Residues count along the entry.
UniProt Q86VE9: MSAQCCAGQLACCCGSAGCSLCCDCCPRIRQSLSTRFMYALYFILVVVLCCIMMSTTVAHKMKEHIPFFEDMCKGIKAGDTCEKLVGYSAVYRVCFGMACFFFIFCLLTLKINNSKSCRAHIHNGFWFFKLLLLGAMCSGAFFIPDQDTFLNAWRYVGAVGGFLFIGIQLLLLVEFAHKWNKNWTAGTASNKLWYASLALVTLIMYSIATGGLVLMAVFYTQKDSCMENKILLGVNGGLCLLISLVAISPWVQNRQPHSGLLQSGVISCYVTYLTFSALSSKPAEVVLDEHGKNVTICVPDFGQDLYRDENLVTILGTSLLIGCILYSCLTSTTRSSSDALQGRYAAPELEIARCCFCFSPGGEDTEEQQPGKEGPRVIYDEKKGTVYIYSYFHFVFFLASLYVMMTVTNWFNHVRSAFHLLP
UniProt Q13444: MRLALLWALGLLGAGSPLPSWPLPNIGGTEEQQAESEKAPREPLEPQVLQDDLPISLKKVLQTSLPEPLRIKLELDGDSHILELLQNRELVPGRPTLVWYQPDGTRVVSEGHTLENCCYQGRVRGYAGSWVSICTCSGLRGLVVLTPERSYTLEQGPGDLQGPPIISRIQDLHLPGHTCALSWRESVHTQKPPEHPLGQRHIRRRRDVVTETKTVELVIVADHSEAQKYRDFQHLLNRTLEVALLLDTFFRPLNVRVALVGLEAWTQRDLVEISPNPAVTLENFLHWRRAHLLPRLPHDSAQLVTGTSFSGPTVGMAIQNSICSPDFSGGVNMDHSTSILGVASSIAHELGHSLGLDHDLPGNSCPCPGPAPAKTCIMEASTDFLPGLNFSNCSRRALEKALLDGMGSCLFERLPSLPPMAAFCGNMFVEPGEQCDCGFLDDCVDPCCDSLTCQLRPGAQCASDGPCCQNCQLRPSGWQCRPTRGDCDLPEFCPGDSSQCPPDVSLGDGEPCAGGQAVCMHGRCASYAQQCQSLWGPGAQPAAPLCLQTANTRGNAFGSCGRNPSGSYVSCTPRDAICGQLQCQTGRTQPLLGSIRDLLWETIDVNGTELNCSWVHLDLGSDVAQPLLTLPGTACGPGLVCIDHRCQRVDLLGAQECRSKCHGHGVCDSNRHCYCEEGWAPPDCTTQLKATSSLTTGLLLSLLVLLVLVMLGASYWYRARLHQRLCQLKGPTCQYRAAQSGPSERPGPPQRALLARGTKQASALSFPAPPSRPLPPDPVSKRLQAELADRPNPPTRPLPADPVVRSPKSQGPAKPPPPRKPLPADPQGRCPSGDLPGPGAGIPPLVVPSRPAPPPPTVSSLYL
UniProt Q13443, residues 29-819: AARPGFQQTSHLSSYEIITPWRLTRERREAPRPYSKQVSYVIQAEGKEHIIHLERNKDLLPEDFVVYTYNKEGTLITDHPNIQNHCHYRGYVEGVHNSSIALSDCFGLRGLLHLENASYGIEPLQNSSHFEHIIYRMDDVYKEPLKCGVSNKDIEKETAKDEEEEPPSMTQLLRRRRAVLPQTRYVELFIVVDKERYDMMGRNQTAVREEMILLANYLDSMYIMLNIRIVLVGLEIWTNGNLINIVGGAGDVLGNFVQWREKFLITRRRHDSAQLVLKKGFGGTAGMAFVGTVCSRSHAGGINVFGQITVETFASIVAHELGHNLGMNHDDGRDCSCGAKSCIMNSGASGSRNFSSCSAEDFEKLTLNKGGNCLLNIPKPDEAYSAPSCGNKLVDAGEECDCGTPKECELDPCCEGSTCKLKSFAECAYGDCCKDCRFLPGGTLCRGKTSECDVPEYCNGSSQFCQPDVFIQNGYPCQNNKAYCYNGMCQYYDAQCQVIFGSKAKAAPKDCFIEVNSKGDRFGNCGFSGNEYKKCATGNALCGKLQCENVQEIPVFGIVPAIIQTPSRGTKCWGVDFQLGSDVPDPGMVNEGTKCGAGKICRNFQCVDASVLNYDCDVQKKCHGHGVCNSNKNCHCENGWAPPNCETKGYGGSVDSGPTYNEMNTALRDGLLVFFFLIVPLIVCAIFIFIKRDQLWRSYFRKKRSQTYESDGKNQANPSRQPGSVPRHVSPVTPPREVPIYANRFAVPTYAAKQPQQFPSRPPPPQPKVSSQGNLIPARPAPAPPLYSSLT

Target: FLAG-tagged SERINC5 (Ser5-FLAG) (UniProt Q86VE9)
Test: affinity purification with mass spectrometry; Ser5-FLAG expressed in HEK293T; RIPA lysate incubated with anti-FLAG M2 magnetic beads 24 h at 4 °C; SDS-PAGE, Nano LC-MS/MS; cell surface proteins shown

Substance | binding
endogenous ADAM15 (from UniProt Q13444) | binds
endogenous ADAM9 (from UniProt Q13443 29-819) | binds
